The record followed here is US9115121B2, “1,3,5-triazine-2-amine derivatives, preparation thereof and diagnostic and therapeutic use thereof” (SANOFI, priority 2011, dated 2015).

Chains of the proteins cited; added tags and fusions are not shown.
UniProt P34972, whole entry: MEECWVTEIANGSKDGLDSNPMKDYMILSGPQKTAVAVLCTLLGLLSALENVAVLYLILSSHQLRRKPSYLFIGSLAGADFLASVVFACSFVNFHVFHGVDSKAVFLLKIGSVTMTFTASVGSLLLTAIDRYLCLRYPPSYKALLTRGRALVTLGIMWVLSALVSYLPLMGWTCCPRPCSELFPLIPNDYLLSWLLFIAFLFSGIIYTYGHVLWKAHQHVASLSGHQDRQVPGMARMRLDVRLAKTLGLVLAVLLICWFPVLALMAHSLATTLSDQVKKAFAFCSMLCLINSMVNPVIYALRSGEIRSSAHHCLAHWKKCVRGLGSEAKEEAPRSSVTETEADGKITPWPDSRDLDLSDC

Molecules are shown by their SMILES. Structures were worked out from names or drawings and are uncertain.

The target of this test is human CB2 receptors (Homo sapiens (Human), UniProt P34972). The test can be described thus: Affinity binding test on human CB2 receptors (tritiated ligand, membranes of recombinant cell lines). Particulars: read-out: IC50 (nM) hCB2, concentration causing 50% inhibition of specific binding of the tritiated ligand.

With `COc1nc(NCCc2ccc(F)cc2)nc(-c2cccc(S(C)(=O)=O)c2)n1`, the IC50 turned out to be 38 nM.
